Drawing on PubChem BioAssay AID212 (DTP/NCI, 2004), this text covers T/C and survivor count for 25 compounds.

Structures are written as SMILES. The list does not hold the whole screen: it gathers tests that were run many times, whatever their T/C, doses with no T/C, and many T/C values between a quarter and a half above the control. Further doses and runs are listed elsewhere. T/C: endpoint of the treated group in % of that of the vehicle group. Schedules are NCI's codes, taken here to give the interval after Q, in days (D) or hours (H), and the number of doses after X. Some T/C values are followed by the survivors on the day toxicity was checked, most often the fifth; where none is given, no animal had died by that day. Some entries give survivors of the animals treated and no T/C: the source holds a T/C of zero for them, seemingly a mark for toxic or unscored doses. Counts of survivors are from the toxicity check (mostly the fifth day) where no day follows; animals may have died later. Some doses were run more than once; the results are listed from low to high. *1 amine or outer side, *2 acyl side, *3 side chain or, on linkers, in order; H or OH if unused. Where a SMILES comes first, the peptide text is derived from it. [ ]: non-standard residue; d: D form. The star is where a group is joined. X2 = CCC(=O)CC1CC(C)CC(C(=O)[*:2])N1[*:1]; X1 = CCCCCCCCC(C)C(=O)*; Aib = CC(C)(N)C(=O)O; X3 = CC(CN(C)CCO)N*

This assay deals with BDF1 mice, colon carcinoma 38 sc, T/C %. In words: NCI In Vivo Anticancer Drug Screen. Data for tumor model Colon Carcinoma 38 (subcutaneous) in B6D2F1 (BDF1) mice. Particulars: T/C endpoint: median tumor weight (est.), higher T/C = larger tumour; for T/C: evaluated on day 20. In short, it runs like this:
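Transplantable tumor in mice; compound-treated vs vehicle-dosed controls. Measured survival or tumor size; value = T ÷ C.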

Where [1] appears, read: dose: 400.0 mg/kg/injection, schedule: Q07DX002 (ip), vehicle: saline with Tween-80.
Setting [2] is: dose: 400.0 mg/kg/injection, schedule: Q07DX002 (ip), vehicle: Klucel (hydroxypropylcellulose) (HPC).
Setting [3] is: dose: 100.0 mg/kg/injection, schedule: Q07DX002 (ip), vehicle: saline with Tween-80.
Where [4] appears, read: dose: 200.0 mg/kg/injection, schedule: Q07DX002 (ip), vehicle: saline with Tween-80.
[5] abbreviates: dose: 12.5 mg/kg/injection, schedule: Q07DX002 (ip), vehicle: saline.
The mark [6] stands for this setting: dose: 50.0 mg/kg/injection, schedule: Q07DX002 (ip), vehicle: saline with Tween-80.

For `CN(C)c1ccc2c(N(C)C)cc(N(C)C)nc2c1`, under “dose: 25.0 mg/kg/injection, schedule: Q07DX002 (ip), vehicle: Klucel (hydroxypropylcellulose) (HPC)”, the T/C was 147 % of control [9 of 10 alive on day 20]. Further, under “dose: 100.0 mg/kg/injection, schedule: Q07DX002 (ip), vehicle: Klucel (hydroxypropylcellulose) (HPC)”, the survivor count is reported as 0 of 10 on day 20.
Turning to `COc1cccc2c1C(=N)c1c(O)c3c(c(O)c1C2=O)C[C@@](O)(C(C)=O)C[C@@H]3OC1CC(N)C(O)C(C)O1` (stereo partly drawn), the survivor count is given as 1 of 10 on day 20 (dose: 18.0 mg/kg/injection, schedule: Q07DX002 (ip), vehicle: saline); 0 of 9 on day 20 (dose: 36.0 mg/kg/injection, schedule: Q07DX002 (ip), vehicle: saline); 0 of 10 on day 20 (dose: 72.0 mg/kg/injection, schedule: Q07DX002 (ip), vehicle: saline).
For the compound `NCC1CCC(C(=O)O)CC1` (stereo not drawn), the survivor count runs as follows: under setting [1], 1 of 10 on day 20; (dose: 800.0 mg/kg/injection, schedule: Q07DX002 (ip), vehicle: saline with Tween-80) 0 of 10 on day 20.
On to `COc1cccc2c1C(=O)c1c(O)c3c(c(O)c1C2=O)C[C@@](O)(C(=O)CO)C[C@@H]3OC1CC(OC(C)=O)C(OC(C)=O)C(C)O1` (stereo partly drawn), for which, under “dose: 100.0 mg/kg/injection, schedule: Q07DX002 (ip), vehicle: distilled water + Tween-80”, the survivor count is recorded as 5 of 10 on day 20.
As for `c1csc(C[N+]23CN4CN(CN(C4)C2)C3)c1`, the survivor count (dose: 800.0 mg/kg/injection, schedule: Q07DX002 (ip), vehicle: saline) was 0 of 10 on day 20.
As for `C=CC(C)(C)n1cc(C2=C(O)C(=O)C(c3cn(C(C)(C)C=C)c4ccccc34)=C(O)C2=O)c2ccccc21`, the T/C was 140 % of control (dose: 5.0 mg/kg/injection, schedule: Q07DX002 (ip), vehicle: DMSO) and 144 % of control (dose: 10.0 mg/kg/injection, schedule: Q07DX002 (ip), vehicle: DMSO). Under “dose: 160.0 mg/kg/injection, schedule: Q07DX002 (ip), vehicle: DMSO”, the survivor count was 0 of 10 on day 20.
Take `O=S(=O)(O)O`: under setting [2], the survivor count is listed as 0 of 10 on day 20.
On to `C=C1C(=O)OCC1(C(=O)OCC)C(=O)OCC`, for which the T/C (dose: 25.0 mg/kg/injection, schedule: Q07DX002 (ip), vehicle: saline with Tween-80) is 125 % of control [8 of 10 alive on day 20]. Further, the survivor count runs as follows: under setting [3], 3 of 10 on day 20; under setting [4], 0 of 10 on day 20; under setting [1], 0 of 10 on day 20.
Regarding `CCCCCCCCC(C)C(=O)N1CCCC1C(=O)N1C(CC(=O)CC)CC(C)CC1C(=O)NC(C)C(=O)NC(C)(C)C(=O)NC(C)(C)C(=O)NC(C(=O)NC(C)C(=O)NC(C)(C)C(=O)NC(C)(C)C(=O)NC(C)CN(C)CCO)C(C)CC` (stereo not drawn) (X1-P[X2]A[Aib][Aib]IA[Aib][Aib]-X3; configuration not given here), the survivor count reads like this: (dose: 10.0 mg/kg/injection, schedule: Q07DX002 (ip), vehicle: Klucel (hydroxypropylcellulose) (HPC)) 3 of 10 on day 20; (dose: 20.0 mg/kg/injection, schedule: Q07DX002 (ip), vehicle: Klucel (hydroxypropylcellulose) (HPC)) 0 of 10 on day 20.
As to `COc1cccc2c1C(=O)c1c(O)c3c(c(O)c1C2=O)C[C@H](O)C[C@@H]3OC1CC(N)C(O)C(C)O1` (stereo partly drawn), the T/C (dose: 6.75 mg/kg/injection, schedule: Q07DX002 (ip), vehicle: water) was 126 % of control. Further, the survivor count runs as follows: (dose: 54.0 mg/kg/injection, schedule: Q07DX002 (ip), vehicle: water) 0 of 10 on day 20; (dose: 60.0 mg/kg/injection, schedule: Q07DX002 (ip), vehicle: saline) 3 of 10 on day 20; (dose: 108.0 mg/kg/injection, schedule: Q07DX002 (ip), vehicle: water) 0 of 10 on day 20.
Regarding `CN1CCN(CCCN2c3ccccc3Sc3ccc(C(F)(F)F)cc32)CC1`, where the note is “dose: 12.5 mg/kg/injection, schedule: Q07DX002 (ip), vehicle: saline with Tween-80”, the T/C is 141 % of control. Further, the survivor count is 6 of 10 on day 20 under setting [3] and 0 of 10 on day 20 under setting [4].
Consider `CC1(C)COCN1COC1CCCCC1`, for which the survivor count is given as 0 of 10 on day 20 (dose: 400.0 mg/kg/injection, schedule: Q07DX002 (ip), vehicle: suspension in saline) and 0 of 10 on day 20 (dose: 800.0 mg/kg/injection, schedule: Q07DX002 (ip), vehicle: suspension in saline).
Consider `CCc1nc(N)nc(N)c1-c1ccc(Cl)c([N+](=O)[O-])c1`, for which, under setting [3], the survivor count is reported as 0 of 10 on day 20.
Regarding `C(CSC1=NCCN1)CSC1=NCCN1`, the T/C is 137 % of control under setting [5] and 138 % of control [9 of 10 alive] (dose: 100.0 mg/kg/injection, schedule: Q07DX002 (ip), vehicle: saline).
With `C/C=C/C1=CC(=O)C(O)C1O` (stereo not drawn), the T/C (dose: 45.0 mg/kg/injection, schedule: Q07DX002 (ip), vehicle: water) is 130 % of control.
On to `C1CN2CN3CCN(CN1C3)C2`, for which the T/C is, setting by setting: under setting [5], 131 % of control; (dose: 50.0 mg/kg/injection, schedule: Q07DX002 (ip), vehicle: saline) 149 % of control [9 of 10 alive].
Consider `CCN(CC)CCCNc1nccc2c(C)c3[nH]c4ccncc4c3cc12`, for which the survivor count by setting is: (dose: 20.0 mg/kg/injection, schedule: Q07DX002 (ip), vehicle: other) 1 of 10 on day 20; (dose: 24.0 mg/kg/injection, schedule: Q07DX002 (ip), vehicle: acid diluted with saline) 3 of 10 on day 20; (dose: 40.0 mg/kg/injection, schedule: Q07DX002 (ip), vehicle: other) 0 of 10 on day 20.
On to `Nc1ccc(C(=O)Nc2ccccc2N)cc1`, for which the T/C was 135 % of control [9 of 10 alive on day 20] under setting [6] and 132 % of control [9 of 10 alive on day 20] (dose: 100.0 mg/kg/injection, schedule: Q01DX007 (oral), vehicle: saline with Tween-80). Further, the survivor count is 4 of 10 on day 20 (dose: 200.0 mg/kg/injection, schedule: Q01DX007 (ip), vehicle: saline with Tween-80) and 3 of 10 on day 20 (dose: 400.0 mg/kg/injection, schedule: Q01DX007 (ip), vehicle: saline with Tween-80).
Take `C=C1C(=O)O[C@H]2/C=C(/C)C3=CC(=O)[C@@](C)(C[C@@H](OC(=O)/C(C)=C\C)C12)O3` (stereo partly drawn): the survivor count (dose: 50.0 mg/kg/injection, schedule: Q07DX002 (ip), vehicle: Klucel (hydroxypropylcellulose) (HPC)) is recorded as 2 of 10 on day 20.
For the compound `O=[n+]1c2ccccc2n([O-])c2ccccc21.[Cl][Ni][Cl]`, the survivor count was 5 of 10 on day 20 under setting [6] and 0 of 10 on day 20 under setting [3].
Turning to `CCCC(=O)OC1C=C2N3C(=O)C4CC56C(=CC(OC(C)=O)C7OC75)N4C(=O)C3CC26C2OC12` (stereo not drawn), the T/C (dose: 0.63 mg/kg/injection, schedule: Q07DX002 (ip), vehicle: Klucel (hydroxypropylcellulose) (HPC)) was 140 % of control.
Turning to `CCN(CC)CC(C)(C)C(=O)/C=C/c1ccccc1`, the survivor count (dose: 250.0 mg/kg/injection, schedule: Q07DX002 (ip), vehicle: saline) was 3 of 10 on day 20; the survivor count (dose: 500.0 mg/kg/injection, schedule: Q07DX002 (ip), vehicle: saline) is listed as 0 of 10 on day 20; the survivor count (dose: 1000.0 mg/kg/injection, schedule: Q07DX002 (ip), vehicle: saline) is 0 of 10 on day 20.
On to `Cc1ccc(NCCN(C)C)c2c(=O)c3cc(O)ccc3sc12`, for which the survivor count under setting [2] is 4 of 10 on day 20 and 5 of 10 on day 20.
`BrC[P+](CBr)(CBr)CBr`: the T/C under setting [6] was 134 % of control. Further, the survivor count under setting [4] is recorded as 3 of 10 on day 20.
Take `Nc1ccc(Cn2ccc3c4c(N)nc(N)nc4ccc32)cc1`: under “dose: 1.25 mg/kg/injection, schedule: Q07DX002 (ip), vehicle: saline with Tween-80”, the T/C is 132 % of control. The survivor count (dose: 40.0 mg/kg/injection, schedule: Q07DX002 (ip), vehicle: saline with Tween-80) is recorded as 3 of 10 on day 20.
